Experiment [1] addresses T1, Klp5^Q582P-HA (recombinant) (S. pombe) (UniProt O14343).
T1 sequence: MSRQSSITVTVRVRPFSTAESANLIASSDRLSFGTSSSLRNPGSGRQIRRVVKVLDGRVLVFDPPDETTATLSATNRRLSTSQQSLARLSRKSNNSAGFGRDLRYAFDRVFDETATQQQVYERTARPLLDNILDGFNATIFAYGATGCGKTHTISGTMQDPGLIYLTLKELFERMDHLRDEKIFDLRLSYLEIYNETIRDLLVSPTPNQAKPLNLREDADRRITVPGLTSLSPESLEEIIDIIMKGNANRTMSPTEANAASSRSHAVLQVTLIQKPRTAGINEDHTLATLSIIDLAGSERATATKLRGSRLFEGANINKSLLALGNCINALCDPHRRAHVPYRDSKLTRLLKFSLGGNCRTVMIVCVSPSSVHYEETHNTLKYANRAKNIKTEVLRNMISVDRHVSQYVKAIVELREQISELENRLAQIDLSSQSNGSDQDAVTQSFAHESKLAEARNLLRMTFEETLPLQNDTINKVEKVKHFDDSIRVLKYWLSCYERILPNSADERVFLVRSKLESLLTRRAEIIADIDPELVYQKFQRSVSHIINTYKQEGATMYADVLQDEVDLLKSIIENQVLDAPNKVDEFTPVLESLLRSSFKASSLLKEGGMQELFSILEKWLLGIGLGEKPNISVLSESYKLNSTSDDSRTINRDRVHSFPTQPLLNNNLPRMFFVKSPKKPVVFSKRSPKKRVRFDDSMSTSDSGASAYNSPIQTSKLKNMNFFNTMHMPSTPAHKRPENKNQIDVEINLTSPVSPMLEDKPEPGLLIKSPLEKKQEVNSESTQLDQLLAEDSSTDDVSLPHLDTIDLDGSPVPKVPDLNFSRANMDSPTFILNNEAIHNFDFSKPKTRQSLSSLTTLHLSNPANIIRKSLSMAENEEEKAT
Put plainly: SEC; co-expressed in E. coli; complex held on IgG Sepharose by protein A on Klp5, cut off with PreScission protease, then Superose-6 gel filtration in LEW buffer (50 mM HEPES pH 7.5, 300 mM KCl) at 4°C.

The next experiment deals with T2, Klp6-GFP (S. pombe) (UniProt O59751).
T2 sequence: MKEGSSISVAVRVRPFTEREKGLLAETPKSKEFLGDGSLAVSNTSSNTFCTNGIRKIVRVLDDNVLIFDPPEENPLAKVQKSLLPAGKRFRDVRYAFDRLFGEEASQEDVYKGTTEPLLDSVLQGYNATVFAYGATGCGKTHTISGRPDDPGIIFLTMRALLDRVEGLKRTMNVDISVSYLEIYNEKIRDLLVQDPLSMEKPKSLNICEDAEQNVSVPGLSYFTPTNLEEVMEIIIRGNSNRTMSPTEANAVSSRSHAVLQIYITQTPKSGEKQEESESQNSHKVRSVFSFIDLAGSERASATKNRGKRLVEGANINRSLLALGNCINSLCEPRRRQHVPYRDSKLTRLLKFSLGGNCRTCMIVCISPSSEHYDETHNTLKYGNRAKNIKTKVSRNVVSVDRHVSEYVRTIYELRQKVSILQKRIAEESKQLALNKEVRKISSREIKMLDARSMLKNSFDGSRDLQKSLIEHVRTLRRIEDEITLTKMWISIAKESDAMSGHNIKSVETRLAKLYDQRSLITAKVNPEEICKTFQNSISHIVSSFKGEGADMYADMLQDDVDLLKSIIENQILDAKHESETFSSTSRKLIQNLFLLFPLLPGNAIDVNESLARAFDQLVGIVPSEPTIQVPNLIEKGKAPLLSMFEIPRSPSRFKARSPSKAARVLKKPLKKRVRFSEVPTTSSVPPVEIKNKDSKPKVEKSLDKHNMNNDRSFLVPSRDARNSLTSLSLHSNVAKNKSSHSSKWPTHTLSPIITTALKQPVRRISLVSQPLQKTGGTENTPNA
Put plainly: co-IP; Klp6-GFP precipitated with magnetic GFP-trap from 2.8 mg S. pombe whole cell extract, 1.5 h at 4°C, IP buffer (50 mM Tris-HCl pH 7.4, 1 mM EDTA, 150 mM NaCl, 0.05% NP-40, 10% glycerol); blot with anti-FLAG and anti-GFP.

No constants are given. Whether binding was seen depends on the method and setting. For some assays here: Binding seen in cells or lysates may run through a third protein. Some entries that bind do so weakly or less than the wild type. Tags and fused reporters may be left off the sequences shown.

B1: Klp6-msfGFP (recombinant, full length) (protein, UniProt O59751 1-784)
chain: T2 sequence
Turning to B1, the binding result in experiment [1] is “binds”.

B2: Klp5^Q582P-5FLAG (protein, UniProt O14343 1-883)
chain: T1 sequence
With B2, the binding result in the experiment with Klp6-GFP (S. pombe) is given as “binds”.
